{"source": "patent US6524842B1", "about": "“Biodegradation of gasoline oxygenates” (Envirogen, Inc., priority 2000, dated 2003)", "test_system": "strain ENV735", "assay": "MTBE degradation assays with ENV735 cells", "assay_type": "cell-based, Hydrogenophaga flava", "note": "Some results come without the dose or concentration used.", "data": [{"smiles": "COC(C)(C)C", "note": "[MTBE, methyl-tert-butyl ether]", "values": [{"measurement": "MTBE concentration that ENV735 was able to degrade", "setting": "concentrations as great as", "value": "≤ 3000", "unit": "mg/L"}, {"measurement": "pH optimum for MTBE degradation", "setting": "strain ENV735", "value": 7.0}]}]}
